Some results were stated once for a whole list of compounds, not compound by compound.
Test system: C. albicans SC5314, C. krusei ATCC 6258 and C. parapsilosis ATCC 22019
Experiment: CLSI broth microdilution, MIC summarised over the three Candida test strains
Format: cell-based
Conditions: value or range over the three Candida strains of Table 1, total inhibition
Description: ICAN has 3 key moieties, namely the amino, naphthalene and isonitrile. To find out which ones of them are essential for the antifungal behavior and to design more efficient derivatives, comparative studies were carried out, where one of the moieties was exchanged or eliminated. All ICAN derivatives were tested against C. albicans SC5314, C. krusei ATCC 6258 and C. parapsilosis ATCC 22019. The antifungal agents were dissolved in 100% DMSO and diluted further in RPMI-1640 (with L-glutamine but without bicarbonate) and buffered to pH 7.0 with 0.165 M morpholinopropanesulfonic acid (MOPS). MICs were read visually after 48-h incubation at 35° C. using the partial (50%) inhibition (for ICAN derivatives) (PI) and total inhibition (for AMB and ICAN derivatives) (TI) criteria. MICs were determined at least twice.
The tested C. albicans, C. tropicalis, C. parapsilosis, C. glabrata and C. krusei ATCC strains and clinical isolates are listed in Table 2. MICs were determined according to the CLSI M27-A3 [22]. […] MICs were read visually after 48-h incubation at 35° C. using the partial (50%) inhibition (for ICAN derivatives) (PI) and total inhibition (for AMB and ICAN derivatives) (TI) criteria. MICs were determined at least twice. […]

In the case of `Nc1cccc2c(N)cccc12` [DAN, 1,5-diaminonaphthalene, reference compound], the MICTI is reported as > 100 µg/mL.

Reference: patent US20230048678A1, “ICAN DERIVATIVES FOR ANTIFUNGAL USE” (DEBRECENI EGYETEM, priority 2019, published 2023)
